These results are taken from paper PMC7876812.

Chains of the proteins cited; added tags and fusions are not shown.
UniProt P54666: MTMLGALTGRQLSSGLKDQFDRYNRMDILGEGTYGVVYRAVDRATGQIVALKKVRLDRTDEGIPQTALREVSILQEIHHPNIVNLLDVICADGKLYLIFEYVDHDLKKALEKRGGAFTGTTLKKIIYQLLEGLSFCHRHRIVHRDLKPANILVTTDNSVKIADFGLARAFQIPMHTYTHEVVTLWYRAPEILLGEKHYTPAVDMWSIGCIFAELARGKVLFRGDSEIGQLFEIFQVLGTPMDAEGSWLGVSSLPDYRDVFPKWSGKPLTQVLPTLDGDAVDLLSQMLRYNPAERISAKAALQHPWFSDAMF

Experiment [1] has as its target T1, CRK2 (Cdc2-related kinase 2), yeast two-hybrid fusion (Trypanosoma brucei) (UniProt P54665).
T1 sequence: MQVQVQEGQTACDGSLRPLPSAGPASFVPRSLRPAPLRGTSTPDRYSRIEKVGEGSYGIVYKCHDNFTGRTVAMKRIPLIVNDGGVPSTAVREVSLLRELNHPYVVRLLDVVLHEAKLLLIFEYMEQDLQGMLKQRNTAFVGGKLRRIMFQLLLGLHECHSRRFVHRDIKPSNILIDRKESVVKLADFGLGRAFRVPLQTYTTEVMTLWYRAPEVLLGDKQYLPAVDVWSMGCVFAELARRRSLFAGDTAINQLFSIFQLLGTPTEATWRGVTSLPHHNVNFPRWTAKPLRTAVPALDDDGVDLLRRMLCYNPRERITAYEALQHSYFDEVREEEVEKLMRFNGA
The experiment can be described thus: two-hybrid; Gal4 system, AH109 (prey, pGAD) mated with Y187 (bait, pGBK); CRK2 as BD or as AD fusion against each of the eleven CMG subunits as AD or BD fusion; growth on 3DO plates at 30 °C.

For experiment [2], the target named is CYC13 (Cyclin13), yeast two-hybrid fusion (Trypanosoma brucei) (UniProt Q387H2). The experiment can be described thus: two-hybrid; Gal4 system, AH109 (prey, pGAD) mated with Y187 (bait, pGBK); CYC13 against the eleven CRKs; growth on 4DO plates at 30 °C for up to 3 days; which partner was bait is not told.
Experiment [3] deals with T2, CRK2-3HA (Trypanosoma brucei) (UniProt P54665).
T2 sequence: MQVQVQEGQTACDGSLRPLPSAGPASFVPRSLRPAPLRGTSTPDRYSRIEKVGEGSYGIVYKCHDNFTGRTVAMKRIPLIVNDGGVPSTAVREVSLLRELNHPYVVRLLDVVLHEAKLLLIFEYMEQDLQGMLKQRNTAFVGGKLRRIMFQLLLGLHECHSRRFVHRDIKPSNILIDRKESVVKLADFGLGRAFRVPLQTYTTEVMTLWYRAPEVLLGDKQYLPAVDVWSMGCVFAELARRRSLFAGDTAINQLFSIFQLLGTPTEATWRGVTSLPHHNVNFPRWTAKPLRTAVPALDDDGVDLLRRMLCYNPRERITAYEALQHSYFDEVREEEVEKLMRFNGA
The experiment can be described thus: co-IP; reciprocal: 3HA-tagged CRK precipitated from T. brucei lysate, CYC13-PTP detected; beads not told.

In experiment [4] the target is Mcm3, yeast two-hybrid fusion (Trypanosoma brucei). The experiment can be described thus: two-hybrid; Gal4 system, AH109 (prey, pGAD) mated with Y187 (bait, pGBK); CRK2 as BD or as AD fusion against each of the eleven CMG subunits as AD or BD fusion; growth on 3DO plates at 30 °C.
Experiment [5] deals with Psf3, yeast two-hybrid fusion (Trypanosoma brucei). The description is as above.
Experiment [6] deals with Sld5, yeast two-hybrid fusion (Trypanosoma brucei). Described as above.
Experiment [7] concerns the target CYC13-PTP (Trypanosoma brucei). The experiment can be described thus: co-IP; PTP-tagged protein precipitated with IgG Sepharose 6 fast flow beads from cleared T. brucei lysate (25 mM Tris-Cl pH 7.6, 100 mM NaCl, 1 mM DTT, 1% NP-40), 1 h at 4 °C; blot with anti-HA and anti-protein A.
Experiment [8] concerns the target GST-Sld5 (Trypanosoma brucei). Description: pull-down; GST fusion on Glutathione Sepharose beads incubated with cleared lysate of T. brucei cells expressing CRK2-3HA, room temperature 30 min; 25 mM Tris-Cl pH 7.6, 100 mM NaCl, 1 mM DTT, 1% NP-40; blot with anti-HA; only the target purified.
Experiment [9] concerns the target GST-Mcm3 (Trypanosoma brucei). Described as above.

No constants are given. Whether binding was seen depends on the method and setting. Binding calls can cover weak binding; strength is not graded here. For part of these data: Tags and fused reporters may be left off the sequences shown. For part of these data: In cells and extracts the contact can be indirect.

For “Mcm5, yeast two-hybrid fusion (Trypanosoma brucei)”, in experiment [1], the binding entry is on record as “binds”.

Regarding “CRK3, yeast two-hybrid fusion (from UniProt P54666 1-311) (enzyme)”, the binding result in [2] is listed as “binds”.

Turning to “Mcm3, yeast two-hybrid fusion (Trypanosoma brucei)”, in experiment [1], the binding entry is on record as “binds”.

As to “Sld5, yeast two-hybrid fusion (Trypanosoma brucei)”, the binding result in [1] is on record as “binds”.

Consider CYC13-PTP (Trypanosoma brucei), for which the binding result in experiment [3] is on record as “binds”.

For the molecule “Mcm6, yeast two-hybrid fusion (Trypanosoma brucei)”, in [1], the binding result is on record as “binds”.

B1: CRK1, yeast two-hybrid fusion (enzyme, UniProt P38973 1-301)
chain: MGSRYERLQKIGEGSYGVVFRARDVTTGTIVAVKRIRLEKEEEGVPCTAIREISILKELRHENIVRLLDVCHSEKRLTLVFECMEMDLKKYMDHVGGDLDAGTIQEFMRSLLSGVRFCHERNVLHRDLKPPNLLISREKELKLADFGLGRAFGIPVKKFTQEVVTLWYRSPDVLLGSTQYGTPVDIWSVGCIFAEMAIGAPLFTGKNDADQLLRIFQFLGTPNRQVWPSMDTYPNSSNMLSRPEFQQTLAATCEEQFQTNPAYAKLGPQGIDLLRWLLRYEPSERLTAAQALEHPYFSVEF
As for B1, the binding entry in experiment [2] is “no binding”.

B2: CRK6, yeast two-hybrid fusion (enzyme, UniProt Q8IEW4 1-325)
chain: MSDTLSSKLDDVDADVLRGAYEPVAIIGEGTYGVVFRARGVASGAEFVIKKLRSDKLKEGVPATTLREVTLLHEMSDNPNVVRLLDVLCSKRRVYLVFELLNEDLRSFIRRNYPQPSATASSSVVPLRLVKNFTCQMLHALWRCHQNRIIHRDLKPANVLLGVKKSTRNDGEDSYILKLADFGLARTYEMTLLTYTKEVMTLWYRAPEILLGERHYTPAADVWSVGCIVLEMIVGCPVFRGESNRDQLDRIFYTVGTPTEETWAGVAMMPGYDKATKIYKVAPLHERLPTFDKEAVQFVAFLLQVNPKSRPTIPTILQHPFLQGD
As to B2, in [2], the binding result is “no binding”.

B3: CRK2 (Cdc2-related kinase 2), yeast two-hybrid fusion (enzyme, UniProt P54665 1-345)
chain: MQVQVQEGQTACDGSLRPLPSAGPASFVPRSLRPAPLRGTSTPDRYSRIEKVGEGSYGIVYKCHDNFTGRTVAMKRIPLIVNDGGVPSTAVREVSLLRELNHPYVVRLLDVVLHEAKLLLIFEYMEQDLQGMLKQRNTAFVGGKLRRIMFQLLLGLHECHSRRFVHRDIKPSNILIDRKESVVKLADFGLGRAFRVPLQTYTTEVMTLWYRAPEVLLGDKQYLPAVDVWSMGCVFAELARRRSLFAGDTAINQLFSIFQLLGTPTEATWRGVTSLPHHNVNFPRWTAKPLRTAVPALDDDGVDLLRRMLCYNPRERITAYEALQHSYFDEVREEEVEKLMRFNGA
Regarding B3, the binding entry in experiment [2], in [4], in experiment [5] and in experiment [6] was “binds” in each case.

B4: CRK2-3HA (enzyme, UniProt P54665 1-345)
chain: MQVQVQEGQTACDGSLRPLPSAGPASFVPRSLRPAPLRGTSTPDRYSRIEKVGEGSYGIVYKCHDNFTGRTVAMKRIPLIVNDGGVPSTAVREVSLLRELNHPYVVRLLDVVLHEAKLLLIFEYMEQDLQGMLKQRNTAFVGGKLRRIMFQLLLGLHECHSRRFVHRDIKPSNILIDRKESVVKLADFGLGRAFRVPLQTYTTEVMTLWYRAPEVLLGDKQYLPAVDVWSMGCVFAELARRRSLFAGDTAINQLFSIFQLLGTPTEATWRGVTSLPHHNVNFPRWTAKPLRTAVPALDDDGVDLLRRMLCYNPRERITAYEALQHSYFDEVREEEVEKLMRFNGA
B4: the binding result in experiment [7], in experiment [8] and in experiment [9] was “binds” each time.
